Literature values as cited in patent publication US20100130452A1, “Use of Doxycycline in the Treatment of Idiopathic Pulmonary Fibrosis” (NATIONAL RESEARCH DEVELOPMENT CORPORATION, priority 2007, published 2010).
At least one structure is not confirmed: it was looked up by name or label, or the drawing left a doubt.

System: patients (periodontal disease, malaria prevention, Pulmonary Capillary Hemangiomatosis, Q fever endocarditis)
Conditions: in vivo; cited from earlier work

C[C@H]1c2cccc(O)c2C(=O)C2=C(O)[C@]3(O)C(=O)C(C(N)=O)=C(O)[C@@H](N(C)C)[C@@H]3[C@@H](O)[C@@H]21 [doxycycline]
Outcome in Q fever endocarditis: declared cured | Outcome in Q-fever endocarditis: successfully treated | Treatment outcome of pulmonary capillary hemangiomatosis with atypical endotheliomatosis: successful treatment
